Assay in all cases: co-IP; lysates (RIPA buffer) of CSIAN cells co-transfected with Flag-tagged CSB and a Myc-tagged protein, 24 hr post transfection; anti-c-myc agarose overnight; Western blot with anti-Flag
The target in experiment [1] is T1, Myc-tagged DDX23 (human) (UniProt Q9BUQ8).
T1 sequence: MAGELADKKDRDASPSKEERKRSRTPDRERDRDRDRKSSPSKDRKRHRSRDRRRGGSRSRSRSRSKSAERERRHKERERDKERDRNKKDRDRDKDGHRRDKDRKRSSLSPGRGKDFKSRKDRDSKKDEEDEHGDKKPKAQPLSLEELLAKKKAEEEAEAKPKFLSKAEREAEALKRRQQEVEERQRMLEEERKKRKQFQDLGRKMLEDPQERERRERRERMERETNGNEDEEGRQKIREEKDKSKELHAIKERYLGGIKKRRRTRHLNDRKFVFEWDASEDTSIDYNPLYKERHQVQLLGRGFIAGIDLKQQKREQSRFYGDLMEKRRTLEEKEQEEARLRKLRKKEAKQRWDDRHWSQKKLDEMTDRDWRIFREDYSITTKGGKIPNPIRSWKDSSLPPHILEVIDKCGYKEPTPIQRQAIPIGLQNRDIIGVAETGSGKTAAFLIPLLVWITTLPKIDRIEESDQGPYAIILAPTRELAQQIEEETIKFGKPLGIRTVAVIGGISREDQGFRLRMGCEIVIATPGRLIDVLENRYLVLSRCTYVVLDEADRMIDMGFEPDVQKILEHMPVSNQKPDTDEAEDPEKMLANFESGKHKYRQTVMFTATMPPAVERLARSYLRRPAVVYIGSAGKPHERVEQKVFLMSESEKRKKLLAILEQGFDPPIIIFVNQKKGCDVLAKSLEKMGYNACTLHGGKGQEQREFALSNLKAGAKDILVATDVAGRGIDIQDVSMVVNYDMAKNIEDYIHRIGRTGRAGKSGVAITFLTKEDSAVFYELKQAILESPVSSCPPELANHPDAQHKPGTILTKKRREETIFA

Protein sequences, listed by entry. Tags and fused reporters are not part of them.
UniProt Q13547: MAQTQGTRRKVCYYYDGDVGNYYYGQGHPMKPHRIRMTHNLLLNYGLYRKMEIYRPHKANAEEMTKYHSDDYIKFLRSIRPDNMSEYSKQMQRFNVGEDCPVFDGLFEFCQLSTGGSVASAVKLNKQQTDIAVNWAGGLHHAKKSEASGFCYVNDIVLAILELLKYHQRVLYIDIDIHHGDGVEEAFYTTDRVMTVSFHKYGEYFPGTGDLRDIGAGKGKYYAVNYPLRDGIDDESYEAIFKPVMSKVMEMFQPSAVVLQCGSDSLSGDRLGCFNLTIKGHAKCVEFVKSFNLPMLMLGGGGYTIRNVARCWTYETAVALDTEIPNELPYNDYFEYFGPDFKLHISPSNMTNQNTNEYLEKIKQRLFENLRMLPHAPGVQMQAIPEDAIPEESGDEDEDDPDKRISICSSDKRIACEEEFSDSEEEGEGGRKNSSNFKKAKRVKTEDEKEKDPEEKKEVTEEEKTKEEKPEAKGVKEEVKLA
UniProt Q00839: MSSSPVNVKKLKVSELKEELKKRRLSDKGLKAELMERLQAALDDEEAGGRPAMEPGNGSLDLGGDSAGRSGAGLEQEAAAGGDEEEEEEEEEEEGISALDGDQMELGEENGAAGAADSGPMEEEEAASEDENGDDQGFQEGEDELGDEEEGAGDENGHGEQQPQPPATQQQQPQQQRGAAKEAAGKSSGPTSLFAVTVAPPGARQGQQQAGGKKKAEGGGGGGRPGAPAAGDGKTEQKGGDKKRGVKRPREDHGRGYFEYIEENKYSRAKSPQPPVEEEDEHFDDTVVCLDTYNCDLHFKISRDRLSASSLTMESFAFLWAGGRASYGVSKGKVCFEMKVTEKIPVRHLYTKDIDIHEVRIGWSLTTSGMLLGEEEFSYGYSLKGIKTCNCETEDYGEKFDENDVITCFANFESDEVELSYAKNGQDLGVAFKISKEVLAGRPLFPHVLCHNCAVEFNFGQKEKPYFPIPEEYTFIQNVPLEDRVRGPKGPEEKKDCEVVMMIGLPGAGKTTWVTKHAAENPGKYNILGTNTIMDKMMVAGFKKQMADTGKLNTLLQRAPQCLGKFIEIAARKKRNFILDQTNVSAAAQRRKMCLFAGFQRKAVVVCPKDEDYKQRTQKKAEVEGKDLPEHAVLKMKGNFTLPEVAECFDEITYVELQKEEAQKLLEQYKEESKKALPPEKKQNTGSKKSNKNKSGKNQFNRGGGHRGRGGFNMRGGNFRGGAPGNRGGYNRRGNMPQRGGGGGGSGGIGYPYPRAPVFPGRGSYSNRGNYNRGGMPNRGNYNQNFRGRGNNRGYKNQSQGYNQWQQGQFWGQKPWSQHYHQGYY
UniProt O43242: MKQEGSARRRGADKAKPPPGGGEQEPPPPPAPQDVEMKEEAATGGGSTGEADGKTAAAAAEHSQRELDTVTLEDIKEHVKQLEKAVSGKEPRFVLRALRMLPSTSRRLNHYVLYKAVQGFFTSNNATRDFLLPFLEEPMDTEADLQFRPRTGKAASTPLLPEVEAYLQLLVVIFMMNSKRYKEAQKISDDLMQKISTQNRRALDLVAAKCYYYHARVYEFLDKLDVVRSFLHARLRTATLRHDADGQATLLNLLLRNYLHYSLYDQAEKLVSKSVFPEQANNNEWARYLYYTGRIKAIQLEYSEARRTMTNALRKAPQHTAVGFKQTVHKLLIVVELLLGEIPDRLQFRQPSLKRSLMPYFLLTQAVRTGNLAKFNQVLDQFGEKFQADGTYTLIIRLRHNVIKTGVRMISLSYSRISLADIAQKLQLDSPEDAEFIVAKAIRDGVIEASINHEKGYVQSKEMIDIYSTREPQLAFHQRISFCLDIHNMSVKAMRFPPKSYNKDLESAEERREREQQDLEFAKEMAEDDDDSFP
UniProt Q09028: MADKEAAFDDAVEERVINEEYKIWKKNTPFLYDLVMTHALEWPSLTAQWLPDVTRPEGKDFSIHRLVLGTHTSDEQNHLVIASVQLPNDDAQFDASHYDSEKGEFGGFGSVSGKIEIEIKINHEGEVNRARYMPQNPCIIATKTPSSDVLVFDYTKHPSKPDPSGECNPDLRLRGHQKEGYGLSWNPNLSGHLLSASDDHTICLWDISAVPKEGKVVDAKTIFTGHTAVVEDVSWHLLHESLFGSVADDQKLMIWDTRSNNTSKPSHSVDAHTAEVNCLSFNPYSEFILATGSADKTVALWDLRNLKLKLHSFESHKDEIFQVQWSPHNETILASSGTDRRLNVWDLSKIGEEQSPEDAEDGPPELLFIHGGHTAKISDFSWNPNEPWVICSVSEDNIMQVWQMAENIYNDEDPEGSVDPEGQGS
UniProt P51531: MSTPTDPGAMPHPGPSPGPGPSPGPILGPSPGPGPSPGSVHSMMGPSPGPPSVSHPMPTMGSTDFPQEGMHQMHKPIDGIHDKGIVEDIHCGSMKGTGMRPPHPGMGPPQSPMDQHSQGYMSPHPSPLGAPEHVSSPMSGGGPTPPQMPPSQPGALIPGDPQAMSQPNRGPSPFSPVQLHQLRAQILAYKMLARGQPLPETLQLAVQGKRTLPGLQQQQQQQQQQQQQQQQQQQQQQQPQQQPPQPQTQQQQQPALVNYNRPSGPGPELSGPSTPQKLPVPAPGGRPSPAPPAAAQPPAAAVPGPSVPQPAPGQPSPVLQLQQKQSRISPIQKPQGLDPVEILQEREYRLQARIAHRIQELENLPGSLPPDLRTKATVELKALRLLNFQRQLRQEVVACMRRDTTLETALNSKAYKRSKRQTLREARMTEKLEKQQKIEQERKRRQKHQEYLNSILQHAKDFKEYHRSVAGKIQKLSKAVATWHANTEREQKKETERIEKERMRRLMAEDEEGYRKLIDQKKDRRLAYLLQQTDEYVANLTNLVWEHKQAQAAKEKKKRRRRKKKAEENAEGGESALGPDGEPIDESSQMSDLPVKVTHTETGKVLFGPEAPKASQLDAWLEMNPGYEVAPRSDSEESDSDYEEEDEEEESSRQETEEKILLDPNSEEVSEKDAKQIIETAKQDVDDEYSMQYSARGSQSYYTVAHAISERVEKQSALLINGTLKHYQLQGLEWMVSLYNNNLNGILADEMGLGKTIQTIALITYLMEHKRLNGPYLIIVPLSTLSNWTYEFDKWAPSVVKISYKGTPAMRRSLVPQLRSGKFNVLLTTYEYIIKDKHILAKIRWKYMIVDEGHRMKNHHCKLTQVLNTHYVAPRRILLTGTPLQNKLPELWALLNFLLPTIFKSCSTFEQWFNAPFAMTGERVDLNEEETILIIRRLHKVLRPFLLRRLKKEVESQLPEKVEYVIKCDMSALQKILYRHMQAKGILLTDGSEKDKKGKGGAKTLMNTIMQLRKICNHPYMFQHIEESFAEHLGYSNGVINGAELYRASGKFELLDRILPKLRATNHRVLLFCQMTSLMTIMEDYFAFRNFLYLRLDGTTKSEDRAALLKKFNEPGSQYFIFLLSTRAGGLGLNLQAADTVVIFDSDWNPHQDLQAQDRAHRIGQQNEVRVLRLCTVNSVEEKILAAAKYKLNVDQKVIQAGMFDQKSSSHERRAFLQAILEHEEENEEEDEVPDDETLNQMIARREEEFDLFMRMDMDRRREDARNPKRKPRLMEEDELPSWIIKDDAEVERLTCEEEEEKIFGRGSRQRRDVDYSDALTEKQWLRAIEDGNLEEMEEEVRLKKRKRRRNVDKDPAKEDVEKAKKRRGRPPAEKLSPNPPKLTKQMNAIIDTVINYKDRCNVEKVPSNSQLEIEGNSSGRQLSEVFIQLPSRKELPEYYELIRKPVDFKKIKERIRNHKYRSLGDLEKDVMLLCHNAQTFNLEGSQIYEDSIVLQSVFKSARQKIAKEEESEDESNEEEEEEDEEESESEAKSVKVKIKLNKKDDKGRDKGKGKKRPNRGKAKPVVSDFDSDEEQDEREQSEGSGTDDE
UniProt P11387: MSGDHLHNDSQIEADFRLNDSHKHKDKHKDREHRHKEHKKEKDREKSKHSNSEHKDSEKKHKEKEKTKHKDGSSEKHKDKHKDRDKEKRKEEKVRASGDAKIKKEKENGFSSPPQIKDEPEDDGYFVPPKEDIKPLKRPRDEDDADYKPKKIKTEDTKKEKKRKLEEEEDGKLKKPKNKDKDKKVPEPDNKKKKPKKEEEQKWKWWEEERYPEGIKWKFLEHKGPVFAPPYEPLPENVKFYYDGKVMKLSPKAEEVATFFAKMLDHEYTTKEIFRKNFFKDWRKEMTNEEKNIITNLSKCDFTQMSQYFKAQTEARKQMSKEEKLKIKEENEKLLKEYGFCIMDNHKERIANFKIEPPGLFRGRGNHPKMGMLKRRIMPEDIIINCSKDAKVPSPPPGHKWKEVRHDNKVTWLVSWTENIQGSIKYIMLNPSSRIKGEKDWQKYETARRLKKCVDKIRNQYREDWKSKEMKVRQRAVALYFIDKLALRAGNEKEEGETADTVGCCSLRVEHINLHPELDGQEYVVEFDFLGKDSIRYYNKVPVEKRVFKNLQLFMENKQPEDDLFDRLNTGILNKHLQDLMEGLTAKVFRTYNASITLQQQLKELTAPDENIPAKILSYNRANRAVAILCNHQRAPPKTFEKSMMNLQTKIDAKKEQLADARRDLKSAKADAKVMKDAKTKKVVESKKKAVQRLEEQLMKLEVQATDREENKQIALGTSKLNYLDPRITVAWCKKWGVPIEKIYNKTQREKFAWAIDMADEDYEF
UniProt Q03468: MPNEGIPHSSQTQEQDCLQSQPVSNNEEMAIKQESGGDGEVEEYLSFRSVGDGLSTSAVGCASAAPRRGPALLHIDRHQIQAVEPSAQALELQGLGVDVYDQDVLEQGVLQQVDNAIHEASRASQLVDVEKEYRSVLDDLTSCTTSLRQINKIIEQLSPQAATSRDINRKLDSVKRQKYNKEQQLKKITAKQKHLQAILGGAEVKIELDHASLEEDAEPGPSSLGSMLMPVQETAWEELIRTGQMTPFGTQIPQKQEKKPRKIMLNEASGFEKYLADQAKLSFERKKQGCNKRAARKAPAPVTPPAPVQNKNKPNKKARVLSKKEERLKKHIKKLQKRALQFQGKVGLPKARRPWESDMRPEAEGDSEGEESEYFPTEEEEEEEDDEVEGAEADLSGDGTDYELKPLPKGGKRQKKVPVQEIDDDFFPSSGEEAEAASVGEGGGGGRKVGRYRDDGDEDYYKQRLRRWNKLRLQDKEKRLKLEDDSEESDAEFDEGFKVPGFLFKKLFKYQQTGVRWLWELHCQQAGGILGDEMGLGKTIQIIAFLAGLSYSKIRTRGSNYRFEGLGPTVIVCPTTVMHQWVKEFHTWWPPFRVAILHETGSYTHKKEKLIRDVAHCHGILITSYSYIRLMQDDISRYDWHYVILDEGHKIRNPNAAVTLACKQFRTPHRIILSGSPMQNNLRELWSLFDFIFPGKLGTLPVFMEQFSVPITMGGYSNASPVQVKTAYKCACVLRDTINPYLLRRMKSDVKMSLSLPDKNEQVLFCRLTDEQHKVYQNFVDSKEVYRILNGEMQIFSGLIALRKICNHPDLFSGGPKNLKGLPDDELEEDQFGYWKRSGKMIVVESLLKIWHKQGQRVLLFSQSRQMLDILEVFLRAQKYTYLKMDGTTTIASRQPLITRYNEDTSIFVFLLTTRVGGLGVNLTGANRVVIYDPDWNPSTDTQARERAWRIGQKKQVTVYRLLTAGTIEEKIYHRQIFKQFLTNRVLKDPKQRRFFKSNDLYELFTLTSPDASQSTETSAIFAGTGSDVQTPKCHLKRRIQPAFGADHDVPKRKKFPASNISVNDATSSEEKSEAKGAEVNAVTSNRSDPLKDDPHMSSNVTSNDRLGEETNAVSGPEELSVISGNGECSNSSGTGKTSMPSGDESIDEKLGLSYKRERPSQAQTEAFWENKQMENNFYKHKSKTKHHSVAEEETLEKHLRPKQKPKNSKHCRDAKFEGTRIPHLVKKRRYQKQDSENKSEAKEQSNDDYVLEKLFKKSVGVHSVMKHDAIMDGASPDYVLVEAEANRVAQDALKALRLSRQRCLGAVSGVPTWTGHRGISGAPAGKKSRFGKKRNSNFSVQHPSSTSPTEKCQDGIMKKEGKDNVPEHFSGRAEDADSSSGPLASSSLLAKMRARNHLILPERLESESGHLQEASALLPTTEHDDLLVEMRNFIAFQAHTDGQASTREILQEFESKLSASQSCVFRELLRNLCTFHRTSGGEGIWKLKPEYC

The target of experiment [2] is T2, Myc-tagged EFTUD2 (human) (UniProt Q15029).
T2 sequence: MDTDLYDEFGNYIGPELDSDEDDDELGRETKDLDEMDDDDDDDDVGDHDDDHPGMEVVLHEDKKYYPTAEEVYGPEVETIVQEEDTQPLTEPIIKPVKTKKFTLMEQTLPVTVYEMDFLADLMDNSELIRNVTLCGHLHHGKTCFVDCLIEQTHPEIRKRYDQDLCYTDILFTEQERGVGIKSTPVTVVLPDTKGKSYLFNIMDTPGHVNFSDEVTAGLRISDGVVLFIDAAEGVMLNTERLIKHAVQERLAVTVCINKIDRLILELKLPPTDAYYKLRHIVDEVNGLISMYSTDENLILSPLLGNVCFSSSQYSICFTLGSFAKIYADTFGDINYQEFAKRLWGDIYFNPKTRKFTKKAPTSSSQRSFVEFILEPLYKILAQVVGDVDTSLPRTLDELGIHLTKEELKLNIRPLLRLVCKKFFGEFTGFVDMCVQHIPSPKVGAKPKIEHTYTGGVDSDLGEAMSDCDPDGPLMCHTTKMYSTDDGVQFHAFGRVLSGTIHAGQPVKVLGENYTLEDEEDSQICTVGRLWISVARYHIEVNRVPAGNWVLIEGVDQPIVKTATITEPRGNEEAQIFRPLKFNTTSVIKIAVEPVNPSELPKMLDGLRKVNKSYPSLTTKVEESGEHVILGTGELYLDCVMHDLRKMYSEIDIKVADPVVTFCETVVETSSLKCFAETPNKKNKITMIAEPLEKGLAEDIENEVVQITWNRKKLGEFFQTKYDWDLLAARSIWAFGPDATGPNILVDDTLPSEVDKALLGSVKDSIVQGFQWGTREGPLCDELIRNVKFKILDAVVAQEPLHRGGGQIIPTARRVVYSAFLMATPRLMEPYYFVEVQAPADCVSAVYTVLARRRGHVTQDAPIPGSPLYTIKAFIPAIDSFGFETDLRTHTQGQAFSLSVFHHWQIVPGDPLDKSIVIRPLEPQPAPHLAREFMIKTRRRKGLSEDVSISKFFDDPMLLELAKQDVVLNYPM

For experiment [3], the target named is Myc-tagged HDAC1 (human) (UniProt Q13547).
The target of experiment [4] is Myc-tagged HNRNPU (human) (UniProt Q00839).
In experiment [5] the target is Myc-tagged PSMD3 (human) (UniProt O43242).
Experiment [6] addresses Myc-tagged RBBP4 (human) (UniProt Q09028).
For experiment [7], the target named is Myc-tagged SMARCA2 (human) (UniProt P51531).
The target in experiment [8] is Myc-tagged TOP1 (human) (UniProt P11387).

No constants are given. Whether binding was seen depends on the method and setting. In cells and extracts the contact can be indirect. Some entries that bind do so weakly or less than the wild type. For some assays here: Sequences can lack the tags named with a protein.

1 substance from article PMC4451243 can be followed below.

Take “Flag-tagged CSB (from UniProt Q03468 1-1493)”: the binding entry is recorded as “binds” in experiment [1]; “no binding” in experiment [2]; “binds” in experiment [3]; “binds” in experiment [4]; “binds” in experiment [5]; “binds” in experiment [6]. Further, the figures for the binding result in experiment [7] and in experiment [8] were “binds weakly” and “binds”, respectively.
